Results on one molecule are retold here after patent publication EP1028734B1, “USE OF SPECIFIC STEADY-STATE R-TYPE CALCIUM CHANNEL BLOCKERS” (priority 1997, dated 1999).

Each structure is given as a SMILES string.

The test in a line: writhe responses in mice (acetic acid, acetylcholine, kaolin). Format: in vivo. The source says:
The antinociceptive actions of compound MV 8612 and MV 8608 were investigated in different models of nociception in mice as reported previously (Vaz et al., 1996, J. Pharmacol. Exp. Ther. 278:304-312).

On to `CN1CC[C@]23c4c5ccc(O)c4O[C@H]2[C@@H](O)C=C[C@H]3[C@H]1C5` [MORPHINE, morphine], for which, under “i.c.v., MV 8612 4.2 to 42 nmol/site, morphine 0.26 to 13 nmol/site”, the “acetic acid-induced writhes, intracerebroventricular dosing” value is given as “dose-related antinociception”. For the same molecule, for the setting “i.p., mice, acetic acid-induced writhes”, the “ID50 ACETIC ACID” value is on record as 1.3 (1.0-1.6) µmol/kg.
